# Measured values published in PubChem BioAssay AID2685 (National Center for Advancing Translational Sciences (NCATS), 2010).
# Among all 320,000 compounds or so, about 2,100 (0.66%) were called active. Inconclusive results, whose numbers are uncertain, are shown with a selection of clear calls. Calls follow the shape of the dose curve; as a rule, active = well fitted inhibition curve with a large enough effect in the signal ratio, with a control signal flat (not every such curve was filed as active); inconclusive = small, poorly fitted or top-dose-only effect, or effect the other way, or a change in a side signal; inactive = flat fitted curve, though single readings scatter; the % refers to the signal ratio. Potencies of inconclusive entries are doubtful fits and often do not repeat.
# Assay: qHTS Assay for Lipid Storage Modulators in Drosophila S3 Cells
# Conditions: BODIPY lipid droplet fluorescence, 18-24 h, cells fed with added oleic acid; lipid storage change, negative = inhibition: at 46.1 µM (top of the series) unless noted
# Method in brief: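 Drosophila S3 cells loaded with oleic acid (400 uM, as added) and compounds at several concentrations; lipid droplets imaged by 488-nm laser-scanning cytometry, 500–530 nm intensity and object ratio to cell channel. Percent activity normalized to 20 uM Triacsin C.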
# % is scaled to controls: 0 for no effect and ±100 for the full control effect; potency is read from the fitted curve at half-maximal effect.
Structure (SMILES),"lipid storage change, negative = inhibition",Potency,outcome
CC(C)C[C@H]1CN=C(Nc2ccccc2)N1CCCC1CCCCC1,inconclusive: 12.4%,–,–
CCC(C)(C)n1nnnc1C(C(C)C)N1CCN(C(=O)c2ccco2)CC1 (centres undefined),inconclusive: -35.7%,–,–
CCOc1ccc(C(C)C)cc1S(=O)(=O)N1CCN(C(=O)c2ccco2)CC1,inconclusive: -51.4%,–,–
CNS(=O)(=O)c1cccc(C(=O)NNC(=O)CN(C)S(=O)(=O)c2ccc(Cl)cc2)c1,inconclusive,–,–
COc1cccc(OCCCn2ccnc2)c1,–,"inconclusive: 29.1 µM [falling, single point]",–
O=C(O)c1cc(C2CC2)nn1-c1ccccc1,inconclusive: 14.1%,–,–
Cc1cccc(NC(=O)CCN2CCOCC2)c1,–,"inconclusive: 1.16 µM [falling, full curve]",–
N#CCCNS(=O)(=O)c1ccc(C(=O)OCC2CCCCC2)cc1,–,"inconclusive: 13 µM [falling, single point]",–
CN(Cc1nc(-c2ccc(Cl)cc2)no1)C(=O)c1ccco1,–,"inconclusive: 29.1 µM [falling, single point]",–
O=C(O)CCC(=O)OCc1c(-c2ccccc2)ncc2ccccc12,inconclusive: -58.9%,–,–
COc1ccccc1NC(=S)NC1CCC(CC2CCC(NC(=S)Nc3ccccc3OC)CC2)CC1 (centres undefined),–,"inconclusive: 29.1 µM [activator, single point]",–
CC12CCC(=O)N1C(C(=O)NCCc1ccccc1)CS2 (centres undefined),inconclusive: 54.4%,–,–
COc1ccc(CC(=O)NC(C)c2nnc(SCC(=O)c3ccc(Br)cc3)n2C)cc1 (centres undefined),–,"inconclusive: 29.1 µM [falling, single point]",–
Cn1c2c(c(=O)n(C)c1=O)CN(CCc1ccccc1)CN2,inconclusive: -31.5%,–,–
COc1ccccc1CC(=O)N1CCOCC1,–,"inconclusive: 1.03 µM [activator, full curve, poor fit]",–
CCCCC/C=N/NC(=O)c1[nH]c2ccc([N+](=O)[O-])cc2c1C,inconclusive: -24.5%,–,–
CCCc1nnc(NC(=O)CCC(=O)Nc2ccc(Cl)cc2)s1,inconclusive: -43.6%,–,–
C/C(N)=C(/C#N)C(=O)CSc1nc2ccccc2c(=O)n1Cc1ccc(F)cc1,inconclusive: 9.23%,–,–
O=C(CCCCCNc1nc(=S)[nH]c2ccccc12)NCCC1=CCCCC1,inconclusive: -84.6%,–,–
CC(=O)Nc1ccc(OCC(O)CN2CCCCC2C)cc1 (centres undefined),inconclusive: -1.72%,–,–
C=CCNC(=O)/C(C#N)=C/c1ccc(C)o1,inconclusive: 81.3%,–,–
O=C(Oc1ccccc1/C=C\C(=O)c1cc2ccccc2o1)c1cccc(F)c1,–,"inconclusive: 29.1 µM [falling, single point]",–
CNC(=O)COC(=O)c1ccc(NC(=O)CC#N)cc1,inconclusive: -11.9%,–,–
COc1cccc(CC(=O)OCc2csc(CC(=O)Nc3ccccc3C)n2)c1,–,"inconclusive: 29.1 µM [falling, single point]",–
C/C(=N\NC(=O)C1COc2ccccc2O1)c1ccccn1 (centres undefined),–,"inconclusive: 25.9 µM [falling, single point]",–
COc1ccc([N+](=O)[O-])cc1N/C(=N/S(=O)(=O)c1ccccc1)c1ccccc1,inconclusive: 22.7%,–,–
CC(=O)Nc1ccc(C(=O)Nc2ccc(S(=O)(=O)N3CCCC3)cc2)cc1,inconclusive: -32.1%,–,–

Structure (SMILES),"lipid storage change, negative = inhibition",Potency,outcome
Cc1ccc2nc(SCC(=O)Nc3ccc(C(N)=O)cc3)[nH]c2c1,inconclusive: 25.2%,–,–
Cc1cc(C)nc(SCC(=O)N/N=C/c2cccc([N+](=O)[O-])c2)n1,inactive: 5.85%,–,–
NC(=O)c1nn(-c2ccccc2)nc1NC(=O)Cn1nnc(-c2ccccc2)n1,inconclusive: 20.1%,–,–
O=C1CN(C(=O)c2ccccc2F)C(c2ccccc2)c2cc(Cl)ccc2N1 (centres undefined),inconclusive: 36.6%,–,–
O=C(NC1CCCC1)C(c1ccccn1)N(C(=O)c1csnn1)c1ccc(F)cc1 (centres undefined),–,"inconclusive: 6.51 µM [activator, single point]",–
CCOc1ccccc1N(CC(=O)O)S(=O)(=O)c1ccc(C)cc1,inconclusive: -31.8%,–,–
COc1cccc(N/C(C)=C/C(=O)c2ccc(Br)cc2)c1,inconclusive: 25.6%,–,–
O=C(NC1CCCC1)C(c1ccccc1)N(Cc1ccco1)C(=O)Cc1cccs1 (centres undefined),inconclusive: -11.5%,–,–
Cc1ccc(S(=O)(=O)NCC(=O)N(CC2CCCO2)C(C(=O)NC2CCCC2)C(C)C)cc1 (centres undefined),inconclusive: -30.6%,–,–
CCN1C/C(=C\c2cccc([N+](=O)[O-])c2)C(=O)/C(=C/c2cccc([N+](=O)[O-])c2)C1,–,"inconclusive: 7.31 µM [falling, partial curve]",–
CCN(CC)C(=O)COc1coc(CN2CCN(c3ccccc3F)CC2)cc1=O,inconclusive: -44.1%,–,–
COc1cc(OC)cc(C(=O)OCC(=O)NC(c2ccccc2)c2ccccc2)c1,inconclusive: -9.6%,–,–
Cc1cc(C(=O)OCC(=O)Nc2cc(C(F)(F)F)ccc2N2CCOCC2)c(C)o1,–,"inconclusive: 2.31 µM [activator, partial curve]",–
Cc1cc(NCCN2CCOCC2)n2c(nc3ccccc32)c1C#N,inconclusive: 3.88%,–,–
O=C(Nc1ccc(N2CCN(C(=O)c3cccs3)CC2)cc1)c1ccc([N+](=O)[O-])o1,inconclusive: -13.9%,–,–
COc1ccc(N2CCN(C(=O)c3oc4ccccc4c3NC(=O)Cc3cccc(OC)c3)CC2)cc1,inconclusive: 92.6%,–,–
CCOC(=O)[C@@H]1[C@H]2COc3ccccc3[C@H]2N2C(=O)N(c3ccc(Cl)cc3)C(=O)[C@]12C,inactive: 17.4%,–,–
O=C(Nc1cccn(Cc2ccccc2Cl)c1=O)NC1CCCCC1,inconclusive: 6.22%,–,–
CN(c1ccccc1)S(=O)(=O)c1cccc(NC(=O)CN2CCc3ccccc3C2)c1,–,–,inactive [at 46.1 µM]
Cc1ccc(OCc2nnc(SCC(=O)Nc3sc(C)c(C)c3C#N)n2C)cc1,inconclusive: 45.6%,–,–
CSC(=NC#N)N1CCN(c2ccc([N+](=O)[O-])cc2)CC1,–,"inconclusive: 6.51 µM [cytotoxic, single point]",–
CCCCn1c(=N)n(CC(=O)c2ccc(OC)cc2)c2ccccc21,inconclusive: 1.93%,–,–
CC(Cl)C(=O)Nc1cc(C(F)(F)F)ccc1N1CCOCC1 (centres undefined),inactive: 10%,–,–
O=S(=O)(c1ccccc1)c1nc(Nc2cccc(O)c2)sc1Cl,inconclusive: -17.6%,–,–
CCCC(C)NC(=O)CSc1nnc2ccccn12 (centres undefined),inconclusive: 20.7%,–,–
COc1cccc(NC(=O)C2CSC3(C)CCC(=O)N23)c1 (centres undefined),inconclusive: 5.57%,–,–
CCn1c(Cc2ccccc2)nnc1SCC(=O)OC(C)C,–,"inconclusive: 29.1 µM [falling, single point]",–

# Some of the entries so far, with bars between the fields:
Structure (SMILES) | lipid storage change, negative = inhibition | Potency | outcome
Cc1cc(C)nc(SCC(=O)N/N=C/c2cccc([N+](=O)[O-])c2)n1 | inactive: 5.85% | – | –
NC(=O)c1nn(-c2ccccc2)nc1NC(=O)Cn1nnc(-c2ccccc2)n1 | inconclusive: 20.1% | – | –
O=C1CN(C(=O)c2ccccc2F)C(c2ccccc2)c2cc(Cl)ccc2N1 (centres undefined) | inconclusive: 36.6% | – | –
O=C(NC1CCCC1)C(c1ccccn1)N(C(=O)c1csnn1)c1ccc(F)cc1 (centres undefined) | – | inconclusive: 6.51 µM [activator, single point] | –
CCOc1ccccc1N(CC(=O)O)S(=O)(=O)c1ccc(C)cc1 | inconclusive: -31.8% | – | –
COc1cccc(N/C(C)=C/C(=O)c2ccc(Br)cc2)c1 | inconclusive: 25.6% | – | –
O=C(NC1CCCC1)C(c1ccccc1)N(Cc1ccco1)C(=O)Cc1cccs1 (centres undefined) | inconclusive: -11.5% | – | –
Cc1ccc(S(=O)(=O)NCC(=O)N(CC2CCCO2)C(C(=O)NC2CCCC2)C(C)C)cc1 (centres undefined) | inconclusive: -30.6% | – | –
CCN1C/C(=C\c2cccc([N+](=O)[O-])c2)C(=O)/C(=C/c2cccc([N+](=O)[O-])c2)C1 | – | inconclusive: 7.31 µM [falling, partial curve] | –
CCN(CC)C(=O)COc1coc(CN2CCN(c3ccccc3F)CC2)cc1=O | inconclusive: -44.1% | – | –
COc1cc(OC)cc(C(=O)OCC(=O)NC(c2ccccc2)c2ccccc2)c1 | inconclusive: -9.6% | – | –
Cc1cc(C(=O)OCC(=O)Nc2cc(C(F)(F)F)ccc2N2CCOCC2)c(C)o1 | – | inconclusive: 2.31 µM [activator, partial curve] | –
Cc1cc(NCCN2CCOCC2)n2c(nc3ccccc32)c1C#N | inconclusive: 3.88% | – | –
O=C(Nc1ccc(N2CCN(C(=O)c3cccs3)CC2)cc1)c1ccc([N+](=O)[O-])o1 | inconclusive: -13.9% | – | –
COc1ccc(N2CCN(C(=O)c3oc4ccccc4c3NC(=O)Cc3cccc(OC)c3)CC2)cc1 | inconclusive: 92.6% | – | –
CCOC(=O)[C@@H]1[C@H]2COc3ccccc3[C@H]2N2C(=O)N(c3ccc(Cl)cc3)C(=O)[C@]12C | inactive: 17.4% | – | –
O=C(Nc1cccn(Cc2ccccc2Cl)c1=O)NC1CCCCC1 | inconclusive: 6.22% | – | –
CN(c1ccccc1)S(=O)(=O)c1cccc(NC(=O)CN2CCc3ccccc3C2)c1 | – | – | inactive [at 46.1 µM]
Cc1ccc(OCc2nnc(SCC(=O)Nc3sc(C)c(C)c3C#N)n2C)cc1 | inconclusive: 45.6% | – | –
CSC(=NC#N)N1CCN(c2ccc([N+](=O)[O-])cc2)CC1 | – | inconclusive: 6.51 µM [cytotoxic, single point] | –
CCCCn1c(=N)n(CC(=O)c2ccc(OC)cc2)c2ccccc21 | inconclusive: 1.93% | – | –
CC(Cl)C(=O)Nc1cc(C(F)(F)F)ccc1N1CCOCC1 (centres undefined) | inactive: 10% | – | –

# The list goes on:

Structure (SMILES),"lipid storage change, negative = inhibition",Potency,outcome
COc1ccccc1NS(=O)(=O)c1cc(NC(=O)c2sccc2C)ccc1N1CCCC1,inconclusive: 29.1%,–,–
Oc1[nH]c2ccccc2c1N=Nc1c(F)c(F)c(Cl)c(F)c1F,inactive: -1.55%,–,–
CN(C)c1nc(N)nc(Nc2ccccc2C#N)n1,inconclusive: 42.7%,–,–
Oc1ccccc1NCC(O)Cn1ccc2ccccc21 (centres undefined),inconclusive: 59%,–,–
CS(=O)(=O)N1CCC(C(=O)Nc2cccc(C(F)(F)F)c2)CC1,inconclusive: -20.4%,–,–
O=[N+]([O-])c1ccc(NCCNc2ccc(Cl)nn2)cc1,inconclusive: -65.5%,–,–
Cc1cc(C)n(C(=O)CCC(=O)Nc2ccc(C)c(C)c2)n1,–,"inconclusive: 29.1 µM [falling, single point]",–
CN(C)C(/C=C/Nc1ccc(C#N)cc1)=C(C#N)C#N,inconclusive: -16.3%,–,–
O=C(Nc1ccc(F)cc1)c1cc(-c2ccccn2)nc2c(Cl)cccc12,inconclusive: -36.2%,–,–
CC(=O)Nc1ccc(N/C=C/C(=O)c2ccc(Br)cc2)cc1,–,"inconclusive: 3.26 µM [activator, full curve]",–
O=C(COC(=O)c1ccc(F)cc1F)NC(=O)Nc1ccc2c(c1)OCCO2,inconclusive: 13.5%,–,–
O=C/C=C/c1c(-c2ccccc2)cc2oc3ccccc3cc1-2,inconclusive: -74.3%,–,–
OCCNc1nc2ccccc2n1-c1ccccc1,–,"inconclusive: 0.651 µM [falling, full curve, poor fit]",–
O=C(c1nn(Cc2ccccc2)c(=O)c2ccccc12)N1CCc2ccccc2C1,inconclusive: -29.9%,–,–
CCOC(=O)n1c(=O)n(C)c2ccc(Cl)cc21,inconclusive: -21%,–,–
CCCc1cc(=O)[nH]c(=S)[nH]1,inconclusive: 0.0403%,–,–
COc1ccc(CCC(=O)Nc2ccc(S(=O)(=O)N3CCCC3)cc2)cc1OC,inconclusive: -20.8%,–,–
O=S(=O)(c1ccc2c(c1)CCCC2)N1CCNCC1,inconclusive: 15.6%,–,–
Cc1ccc(C)n1-c1nn(S(=O)(=O)c2cccc3cccnc23)c2cccc(F)c12,–,"inconclusive: 29.1 µM [activator, single point]",–
CCCCc1nnc(NC(=O)CSc2nc(O)c(Cc3ccccc3)c(=O)[nH]2)s1,inconclusive: -0.75%,–,–
O=C(CN1c2cccc3cccc(c23)S1(=O)=O)Nc1ccccc1F,–,"inconclusive: 5.8 µM [activator, full curve]",–
O=S(=O)(c1ccccc1)c1cc(O)ccc1O,inconclusive: 17.1%,–,–
CC(C)(C)CNC(CO)C12CC3CC(CC(C3)C1)C2 (centres undefined),–,"inconclusive: 0.13 µM [falling, full curve, poor fit]",–
O=C(O)c1ccc(N2CCCCCC2)c(N2C(=O)c3ccccc3C2=O)c1,–,"inconclusive: 0.92 µM [falling, full curve, poor fit]",–
CN(c1ccc(F)cc1)S(=O)(=O)c1ccc(Cl)c(C(=O)Nc2ccc3c(c2)CCC3)c1,–,"inconclusive: 14.6 µM [falling, partial curve]",–
